Experimental data taken from patent US11331369B2 (Zoetis Services LLC, priority 2017, dated 2022).

Assay: general procedure: solution-phase peptide synthesis; HATU/diisopropylethylamine; propylphosphonic anhydride/diisopropylethylamine for

| Substance | step yield (late stage modification step) | also measured |
| --- | --- | --- |
| (R)-1-(benzyloxy)-1-oxopropan-2-yl N—((R)-2-((N-(tert-butoxycarbonyl)-N-methyl-L-leucyl)oxy)-3-(4-((methoxycarbonyl)amino)phenyl)propanoyl)-N-methyl-L-leucinate |  | step yield (coupling step): 83% |
| (3S,6R,9S,12R,15S,18R,21S,24R)-3,9,15,21-tetraisobutyl-4,6,10,16,18,22-hexamethyl-12,24-bis[[4-(pyrazol-1-ylmethyl)phenyl]methyl]-1,7,13,19-tetraoxa-4,10,16,22-tetrazacyclotetracosane-2,5,8,11,14,17,20,23-octaone | 14% |  |
| (3S,6R,9S,12R,15S,18R,21S,24R)-6-(4-((R)-1-(3,5-bis(trifluoromethyl)-1H-pyrazol-1-yl)ethyl)benzyl)-18-(4-((S)-1-(3,5-bis(trifluoromethyl)-1H-pyrazol-1-yl)ethyl)benzyl)-3,9,15,21-tetraisobutyl-4,10,12,16,22,24-hexamethyl-1,7,13,19-tetraoxa-4,10,16,22-tetraazacyclotetracosan-2,5,8,11,14,17,20,23-octaone | 11% |  |
| dimethyl ((((2S,5R,8S,11R,14S,17R,20S,23R)-5,11,17,23-tetraisobutyl-4,8,10,16,20,22-hexamethyl-3,6,9,12,15,18,21,24-octaoxo-1,7,13,19-tetraoxa-4,10,16,22-tetraazacyclotetracosane-2,14-diyl)bis(methylene))bis(4,1-phenylene))dicarbamate |  | cyclisation yield (cyclisation step): 77% yield |
| (3S,6R,9S,12R,15S,18R,21S,24R)-6,18-bis(4-((5-cyclopropyl-1H-pyrazol-1-yl)methyl)benzyl)-3,9,15,21-tetraisobutyl-4,10,12,16,22,24-hexamethyl-1,7,13,19-tetraoxa-4,10,16,22-tetraazacyclotetracosan-2,5,8,11,14,17,20,23-octaone | 22% |  |
| Bis-Iodo PF1022a | 62% |  |
| Bis-CH2OH PF1022a |  | step yield (late stage modification step, 2 steps from Bis-Iodo PF1022a): 91% yield for 2 steps |
| Bis-CH2Cl PF1022a | 98% yield |  |
| 1-(4-(((2R,5S,8R,11S,14R,17S,20R,23S)-14-(4-((3,5-dicyclopropyl-1H-pyrazol-1-yl)methyl)benzyl)-5,11,17,23-tetraisobutyl-4,8, 10,16,20,22-hexamethyl-3,6,9,12,15,18,21,24-octaoxo-1,7,13,19-tetraoxa-4,10,16,22-tetraazacyclotetracosan-2-yl)methyl)benzyl)-1H-pyrazole-3,5-dicarbonitrile | 21% |  |
| (3S,6R,9S,12R,15S,18R,21S,24R)-6,18-bis(4-(2-(4-bromo-1H-pyrazol-1-yl)propan-2-yl)benzyl)-3,9,15,21-tetraisobutyl-4,10,12,16,22,24-hexamethyl-1,7,13,19-tetraoxa-4,10,16,22-tetraazacyclotetracosan-2,5,8,11,14,17,20,23-octaone | 14% |  |
| (3S,6R,9S,12R,15S,18R,21S,24R)-6,18-bis(4-((5-(difluoromethyl)-1H-pyrazol-1-yl)methyl)benzyl)-3,9,15,21-tetraisobutyl-4,10,12,16,22,24-hexamethyl-1,7,13,19-tetraoxa-4,10,16,22-tetraazacyclotetracosan-2,5,8,11,14,17,20,23-octaone | 14% |  |
| (3S,6R,9S,12R,15S,18R,21S,24R)-3,9,15,21-tetraisobutyl-4,6,10,16,18,22-hexamethyl-12,24-bis(4-((5-methyl-5,6-dihydropyrrolo[3,4-c]pyrazol-2(4H)-yl)methyl)benzyl)-1,7,13,19-tetraoxa-4,10,16,22-tetraazacyclotetracosan-2,5,8,11,14,17,20,23-octaone | 11% |  |
